No constants are given. Whether binding was seen depends on the method and setting. Some entries that bind do so weakly or less than the wild type.

The chains behind the UniProt entries cited, without tags or fusion partners.
UniProt P45983: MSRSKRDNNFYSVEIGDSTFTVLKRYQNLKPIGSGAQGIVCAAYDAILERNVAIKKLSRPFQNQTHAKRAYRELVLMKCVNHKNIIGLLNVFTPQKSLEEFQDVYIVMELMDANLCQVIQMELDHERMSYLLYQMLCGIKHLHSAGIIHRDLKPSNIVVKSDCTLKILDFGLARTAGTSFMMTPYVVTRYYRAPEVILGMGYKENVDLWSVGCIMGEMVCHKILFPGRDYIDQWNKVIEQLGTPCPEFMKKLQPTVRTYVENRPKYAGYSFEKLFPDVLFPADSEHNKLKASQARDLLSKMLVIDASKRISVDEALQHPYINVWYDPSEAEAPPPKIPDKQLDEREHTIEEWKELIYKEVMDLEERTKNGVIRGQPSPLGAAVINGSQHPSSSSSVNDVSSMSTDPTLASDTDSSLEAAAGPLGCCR

Here are results for one molecule from paper PMC4670726, “Systematic discovery of linear binding motifs targeting an ancient protein interaction surface on MAP kinases” (Molecular Systems Biology, 2015).

The target in this experiment is JNK1 (as used in the fluorescence polarization titrations) (human) (UniProt P45983). Nature of the experiment: fluorescence polarisation; competition: 50 nM N-terminally labeled reporter peptide mixed with MAPK at ~60–80% complex formation, increasing amounts of unlabeled synthetic test peptide added; 384-well plates, triplicates; Ki from a competition binding equation; both purified. (Fluorescence polarisation rises when a labelled molecule tumbles more slowly, as on binding a larger partner.)

On to RKERPTSLNFPL (N-terminally labeled with carboxyfluorescein or carboxytetramethylrhodamine) [pep JIP3, labeled reporter peptide], for which the binding result was “binds”.
